From paper PMC9938590 come the findings set out here.

Protein sequences, listed by entry. Tags and fused reporters are not part of them.
UniProt Q9VMJ7: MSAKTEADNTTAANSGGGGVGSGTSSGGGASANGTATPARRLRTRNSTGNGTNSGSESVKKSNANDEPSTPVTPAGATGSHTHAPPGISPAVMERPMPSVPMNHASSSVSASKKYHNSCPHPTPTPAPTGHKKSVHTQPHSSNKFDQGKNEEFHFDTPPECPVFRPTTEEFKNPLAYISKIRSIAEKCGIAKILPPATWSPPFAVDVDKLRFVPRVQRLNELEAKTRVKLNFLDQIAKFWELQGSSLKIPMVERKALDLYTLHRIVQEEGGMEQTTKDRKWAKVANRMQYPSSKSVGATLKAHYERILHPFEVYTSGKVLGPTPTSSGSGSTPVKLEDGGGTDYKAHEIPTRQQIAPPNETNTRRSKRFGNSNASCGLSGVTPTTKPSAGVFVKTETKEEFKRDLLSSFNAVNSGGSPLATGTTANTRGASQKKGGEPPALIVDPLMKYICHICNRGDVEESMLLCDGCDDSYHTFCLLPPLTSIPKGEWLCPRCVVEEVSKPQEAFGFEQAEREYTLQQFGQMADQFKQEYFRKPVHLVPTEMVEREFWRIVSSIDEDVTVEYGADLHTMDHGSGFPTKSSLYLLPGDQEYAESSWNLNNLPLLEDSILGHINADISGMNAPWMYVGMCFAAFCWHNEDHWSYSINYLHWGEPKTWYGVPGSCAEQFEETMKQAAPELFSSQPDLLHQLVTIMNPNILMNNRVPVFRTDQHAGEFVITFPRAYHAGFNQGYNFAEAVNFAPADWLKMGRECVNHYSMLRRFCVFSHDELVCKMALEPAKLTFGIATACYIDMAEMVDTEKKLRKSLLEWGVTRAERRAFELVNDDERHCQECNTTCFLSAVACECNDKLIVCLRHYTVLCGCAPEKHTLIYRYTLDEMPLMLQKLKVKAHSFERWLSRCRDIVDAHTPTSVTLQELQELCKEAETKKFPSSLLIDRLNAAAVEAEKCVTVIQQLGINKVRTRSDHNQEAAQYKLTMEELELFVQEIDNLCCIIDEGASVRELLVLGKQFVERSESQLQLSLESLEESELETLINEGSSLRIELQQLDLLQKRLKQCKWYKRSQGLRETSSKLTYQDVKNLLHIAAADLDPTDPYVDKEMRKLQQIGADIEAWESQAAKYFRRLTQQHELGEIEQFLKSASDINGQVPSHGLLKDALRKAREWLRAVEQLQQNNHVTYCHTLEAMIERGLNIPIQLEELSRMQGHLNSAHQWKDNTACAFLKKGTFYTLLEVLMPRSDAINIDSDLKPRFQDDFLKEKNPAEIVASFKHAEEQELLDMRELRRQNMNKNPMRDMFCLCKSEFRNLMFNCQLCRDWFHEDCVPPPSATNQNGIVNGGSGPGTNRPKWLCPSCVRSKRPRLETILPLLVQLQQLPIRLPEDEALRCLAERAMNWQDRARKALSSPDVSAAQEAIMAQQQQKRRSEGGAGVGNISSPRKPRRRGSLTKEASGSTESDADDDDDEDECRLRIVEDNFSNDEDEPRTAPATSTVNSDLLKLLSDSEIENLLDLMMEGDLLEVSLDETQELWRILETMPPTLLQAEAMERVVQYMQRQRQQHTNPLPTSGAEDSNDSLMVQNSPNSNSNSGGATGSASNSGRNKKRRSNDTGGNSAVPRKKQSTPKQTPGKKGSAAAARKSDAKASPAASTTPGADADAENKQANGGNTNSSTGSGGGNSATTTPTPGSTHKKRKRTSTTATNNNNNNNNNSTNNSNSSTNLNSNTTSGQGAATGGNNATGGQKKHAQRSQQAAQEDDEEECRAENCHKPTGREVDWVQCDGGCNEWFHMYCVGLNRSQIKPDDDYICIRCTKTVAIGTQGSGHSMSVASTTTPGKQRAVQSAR
UniProt O97159: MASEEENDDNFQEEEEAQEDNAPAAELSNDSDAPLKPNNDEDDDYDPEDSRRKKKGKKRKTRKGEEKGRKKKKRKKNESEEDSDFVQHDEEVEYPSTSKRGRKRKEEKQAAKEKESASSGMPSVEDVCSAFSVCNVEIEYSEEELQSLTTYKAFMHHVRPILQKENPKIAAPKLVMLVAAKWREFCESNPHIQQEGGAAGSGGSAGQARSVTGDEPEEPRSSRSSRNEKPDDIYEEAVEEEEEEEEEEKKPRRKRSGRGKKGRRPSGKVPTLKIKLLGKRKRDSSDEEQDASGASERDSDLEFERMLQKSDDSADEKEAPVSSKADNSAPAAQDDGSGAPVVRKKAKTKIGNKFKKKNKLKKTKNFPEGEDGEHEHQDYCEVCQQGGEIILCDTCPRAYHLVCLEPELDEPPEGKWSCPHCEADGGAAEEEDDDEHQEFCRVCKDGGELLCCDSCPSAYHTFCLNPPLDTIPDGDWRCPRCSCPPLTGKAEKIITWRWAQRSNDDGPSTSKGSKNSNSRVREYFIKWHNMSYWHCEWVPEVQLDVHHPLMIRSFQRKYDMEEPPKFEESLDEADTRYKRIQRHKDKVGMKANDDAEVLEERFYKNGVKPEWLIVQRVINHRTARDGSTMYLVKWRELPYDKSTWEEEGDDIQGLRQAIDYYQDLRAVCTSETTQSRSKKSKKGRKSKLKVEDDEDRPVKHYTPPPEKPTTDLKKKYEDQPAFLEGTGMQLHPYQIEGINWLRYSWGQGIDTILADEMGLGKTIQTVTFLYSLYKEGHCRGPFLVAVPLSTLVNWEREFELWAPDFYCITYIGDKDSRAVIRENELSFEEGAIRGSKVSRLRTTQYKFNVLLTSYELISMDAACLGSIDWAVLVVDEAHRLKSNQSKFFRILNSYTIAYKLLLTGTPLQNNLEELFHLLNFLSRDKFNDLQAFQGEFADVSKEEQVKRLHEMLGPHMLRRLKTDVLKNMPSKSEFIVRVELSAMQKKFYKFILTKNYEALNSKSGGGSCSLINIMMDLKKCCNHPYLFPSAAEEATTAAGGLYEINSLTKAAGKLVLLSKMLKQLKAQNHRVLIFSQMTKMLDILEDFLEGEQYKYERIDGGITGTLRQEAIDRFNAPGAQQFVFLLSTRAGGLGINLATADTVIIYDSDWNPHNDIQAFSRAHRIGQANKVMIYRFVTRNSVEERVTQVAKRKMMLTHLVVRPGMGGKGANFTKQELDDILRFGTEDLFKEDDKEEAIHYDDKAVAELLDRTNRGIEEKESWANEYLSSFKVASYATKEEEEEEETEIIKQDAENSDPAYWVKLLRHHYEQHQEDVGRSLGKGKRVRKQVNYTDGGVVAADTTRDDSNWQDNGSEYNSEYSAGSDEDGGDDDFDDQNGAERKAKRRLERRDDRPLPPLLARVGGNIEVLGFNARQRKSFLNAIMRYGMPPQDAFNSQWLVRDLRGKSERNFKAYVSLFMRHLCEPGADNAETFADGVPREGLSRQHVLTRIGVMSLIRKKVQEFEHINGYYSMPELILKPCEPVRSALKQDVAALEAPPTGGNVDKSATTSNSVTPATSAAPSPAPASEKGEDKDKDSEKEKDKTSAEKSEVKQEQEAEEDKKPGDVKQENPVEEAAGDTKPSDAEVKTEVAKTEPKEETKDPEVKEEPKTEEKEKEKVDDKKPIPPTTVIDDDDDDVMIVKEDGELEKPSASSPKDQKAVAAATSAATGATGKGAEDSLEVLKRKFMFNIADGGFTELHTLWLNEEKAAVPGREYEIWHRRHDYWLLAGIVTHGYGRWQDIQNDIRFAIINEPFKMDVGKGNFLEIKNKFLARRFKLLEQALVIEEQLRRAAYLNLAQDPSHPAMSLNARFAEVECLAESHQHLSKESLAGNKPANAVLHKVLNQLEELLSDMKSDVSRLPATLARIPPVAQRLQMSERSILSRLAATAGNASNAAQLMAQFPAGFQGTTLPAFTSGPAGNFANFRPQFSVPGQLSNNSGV
UniProt P13709: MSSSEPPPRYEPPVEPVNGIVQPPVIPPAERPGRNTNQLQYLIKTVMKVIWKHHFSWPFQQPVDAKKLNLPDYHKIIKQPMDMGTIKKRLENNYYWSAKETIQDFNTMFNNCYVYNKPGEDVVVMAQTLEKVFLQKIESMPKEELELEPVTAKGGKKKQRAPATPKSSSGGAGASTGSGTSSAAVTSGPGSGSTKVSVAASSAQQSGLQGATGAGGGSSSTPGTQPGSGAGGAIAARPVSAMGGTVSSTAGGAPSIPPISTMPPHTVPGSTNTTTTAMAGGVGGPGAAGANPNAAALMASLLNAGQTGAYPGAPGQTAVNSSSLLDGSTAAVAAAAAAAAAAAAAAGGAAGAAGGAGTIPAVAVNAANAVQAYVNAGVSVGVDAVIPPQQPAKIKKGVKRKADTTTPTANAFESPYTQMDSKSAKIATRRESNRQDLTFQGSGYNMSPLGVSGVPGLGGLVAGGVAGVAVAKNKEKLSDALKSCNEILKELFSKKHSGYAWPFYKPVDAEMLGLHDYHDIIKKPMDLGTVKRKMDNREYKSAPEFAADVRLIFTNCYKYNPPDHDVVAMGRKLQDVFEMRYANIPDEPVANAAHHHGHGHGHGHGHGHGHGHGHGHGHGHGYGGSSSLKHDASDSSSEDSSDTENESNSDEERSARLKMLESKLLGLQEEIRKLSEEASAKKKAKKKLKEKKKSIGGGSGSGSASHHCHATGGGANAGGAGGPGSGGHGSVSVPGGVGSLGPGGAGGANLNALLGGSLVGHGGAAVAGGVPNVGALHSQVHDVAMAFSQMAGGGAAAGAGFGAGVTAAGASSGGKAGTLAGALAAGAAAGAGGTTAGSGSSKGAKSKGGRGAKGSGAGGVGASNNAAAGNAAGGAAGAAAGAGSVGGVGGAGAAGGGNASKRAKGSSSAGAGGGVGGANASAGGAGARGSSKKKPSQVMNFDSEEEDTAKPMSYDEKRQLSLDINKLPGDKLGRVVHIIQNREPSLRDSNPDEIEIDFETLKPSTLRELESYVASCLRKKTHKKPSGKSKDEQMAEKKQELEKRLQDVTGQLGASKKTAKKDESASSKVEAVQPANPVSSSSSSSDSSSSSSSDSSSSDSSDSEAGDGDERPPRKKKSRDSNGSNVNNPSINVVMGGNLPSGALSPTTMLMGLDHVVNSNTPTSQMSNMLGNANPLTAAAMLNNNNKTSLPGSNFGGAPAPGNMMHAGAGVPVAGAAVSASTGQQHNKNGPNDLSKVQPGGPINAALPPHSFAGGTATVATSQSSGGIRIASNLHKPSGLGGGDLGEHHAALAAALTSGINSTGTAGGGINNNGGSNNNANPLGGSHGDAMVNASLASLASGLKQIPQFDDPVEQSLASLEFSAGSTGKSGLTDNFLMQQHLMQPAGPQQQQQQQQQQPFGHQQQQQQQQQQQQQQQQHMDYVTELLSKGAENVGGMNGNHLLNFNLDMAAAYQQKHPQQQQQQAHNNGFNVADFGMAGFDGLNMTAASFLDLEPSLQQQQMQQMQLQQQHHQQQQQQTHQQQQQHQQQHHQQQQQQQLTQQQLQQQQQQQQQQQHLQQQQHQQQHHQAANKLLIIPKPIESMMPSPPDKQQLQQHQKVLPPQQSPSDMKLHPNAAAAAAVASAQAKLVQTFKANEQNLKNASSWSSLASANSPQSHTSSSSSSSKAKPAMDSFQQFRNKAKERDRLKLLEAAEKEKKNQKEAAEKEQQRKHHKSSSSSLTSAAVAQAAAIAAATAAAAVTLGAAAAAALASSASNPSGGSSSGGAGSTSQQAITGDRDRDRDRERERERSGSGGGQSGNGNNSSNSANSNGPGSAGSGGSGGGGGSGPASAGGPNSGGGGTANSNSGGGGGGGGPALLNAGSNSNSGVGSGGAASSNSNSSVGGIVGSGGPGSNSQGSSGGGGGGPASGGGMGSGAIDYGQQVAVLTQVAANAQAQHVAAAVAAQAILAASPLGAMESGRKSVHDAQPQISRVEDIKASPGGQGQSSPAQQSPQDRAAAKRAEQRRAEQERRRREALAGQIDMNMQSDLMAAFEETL
UniProt Q24572: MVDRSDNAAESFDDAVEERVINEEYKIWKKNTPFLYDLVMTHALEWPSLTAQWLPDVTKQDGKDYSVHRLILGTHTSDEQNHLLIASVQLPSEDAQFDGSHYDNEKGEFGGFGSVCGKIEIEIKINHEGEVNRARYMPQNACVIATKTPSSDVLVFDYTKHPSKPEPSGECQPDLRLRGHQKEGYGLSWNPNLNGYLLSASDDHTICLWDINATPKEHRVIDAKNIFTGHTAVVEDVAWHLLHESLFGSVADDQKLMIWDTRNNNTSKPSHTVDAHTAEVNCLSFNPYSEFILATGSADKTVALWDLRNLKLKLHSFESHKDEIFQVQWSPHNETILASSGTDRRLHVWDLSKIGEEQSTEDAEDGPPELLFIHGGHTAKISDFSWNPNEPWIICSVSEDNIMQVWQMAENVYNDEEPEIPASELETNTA

In experiment [1] the target is TurboID-tagged KDM5 (Lysine demethylase 5), N-terminal (NT-KDM5) or C-terminal (CT-KDM5) TurboID fusion (Drosophila melanogaster) (UniProt Q9VMJ7). The experiment in a line: proximity labelling; TurboID fused to the N- or C-terminus of KDM5, expressed with Ubi-Gal4 in kdm5^140 null flies; adult heads lysed in RIPA, biotinylated proteins recovered on streptavidin magnetic beads, on-bead trypsin digestion, LC-MS/MS; enrichment over control (kdm5^140;gkdm5:HA) in experiments 1 and 2 and over dCas9:TurboID in experiment 2; nuclear proteins filtered at p < 0.1 across six datasets (high confidence interactors).

Experiment [2] has the same target. The experiment is described as above. This is another data set of the same source.

Where two headings read alike, the source gives them in different places. No constants are given. Whether binding was seen depends on the method and setting. In cells and extracts the contact can be indirect. These calls come from enrichment with a bait or labelling near it, and not all partners need be listed. For part of these data: A no says only that the protein was not detected with the bait. For part of these data: Tags and fused reporters may be left off the sequences shown.

As for “Trr/KMT2C (methyltransferase responsible for depositing H3K4me1) (from UniProt Q8IRW8 1-2431) (enzyme)”, in experiment [1], the binding result is reported as “binds”.

“NURF chromatin remodeler component Iswi (from UniProt Q24368 1-1027)”: the binding result in experiment [1] is “binds”.

Consider “Mi-2 (nucleosome remodeler) (from UniProt O97159 1-1982)”, for which the binding result in experiment [1] is “binds”.

“Mediator complex subunit MED14 (from UniProt Q9W0P8 1-1553)”: the binding entry in experiment [1] is given as “binds”.

“female sterile (1) homeotic (fs(1)h), ortholog of the acetyl-histone binding Brd2/Brd4 (from UniProt P13709 1-2038)”: the binding result in experiment [1] is “binds”.

Turning to “C-terminal binding protein (CtBP) transcriptional repressor (from UniProt O46036 1-476)”, the binding result in experiment [1] is listed as “binds”.

As to “chromatin assembly factor 1 (Caf1; Caf1-55) (from UniProt Q24572 1-430)”, in experiment [1], the binding result was “binds”.

As to “Zmynd8 (acetyl-lysine binding protein) (from UniProt Q7KRS9 1-1664)”, in experiment [1], the binding result is on record as “binds”.

B1: TFIID subunit Taf9 (protein, UniProt Q27272 1-278)
chain: MSAEKSDKAKISAQIKHVPKDAQVIMSILKELNVQEYEPRVVNQLLEFTFRYVTCILDDAKVYANHARKKTIDLDDVRLATEVTLDKSFTGPLERHVLAKVADVRNSMPLPPIKPHCGLRLPPDRYCLTGVNYKLRATNQPKKMTKSAVEGRPLKTVVKPVSSANGPKRPHSVVAKQQVVTIPKPVIKFTTTTTTKTVGSSGGSGGGGGQEVKSESTGAGGDLKMEVDSDAAAVGSIAGASGSGAGSASGGGGGGGSSGVGVAVKREREEEEFEFVTN
Take B1: the binding result in experiment [2] is recorded as “binds”.

B2: TFIID subunit Taf4 (protein, UniProt P47825 1-921)
chain: MNTSQTAAGNRITFTSQPLPNGTISIAGNPGAVISTAQLPNTTTIKTIQAGIGGQHQGLQQVHHVQQQQQSQQQQQQQQQTQSAGQPLLNSMLPAGVVVGMRQQAPSQQQQKNVPTNPLSRVVINSHMAGVRPQSPSITLSTLNTGQTPALLVKTDNGFQLLRVGTTTGPPTVTQTITNTSNNSNTTSTTNHPTTTQIRLQTVPAAASMTNTTATSNIIVNSVASSGYANSSQPPHLTQLNAQAPQLPQITQIQTIPAQQSQQQQVNNVSSAGGTATAVSSTTAATTTQQGNTKEKCRKFLANLIELSTREPKPVEKNVRTLIQELVNANVEPEEFCDRLERLLNASPQPCLIGFLKKSLPLLRQALYTKELVIEGIKPPPQHVLGLAGLSQQLPKIQAQIRPIGPSQTTTIGQTQVRMITPNALGTPRPTIGHTTISKQPPNIRLPTAPRLVNTGGIRTQIPSLQVPGQANIVQIRGPQHAQLQRTGSVQIRATTRPPNSVPTANKLTAVKVGQTQIKAITPSLHPPSLAAISGGPPPTPTLSVLSTLNSASTTTLPIPSLPTVHLPPEALRAREQMQNSLNHNSNHFDAKLVEIKAPSLHPPHMERINASLTPIGAKTMARPPPAINKAIGKKKRDAMEMDAKLNTSSGGAASAANSFFQQSSMSSMYGDDDINDVAAMGGVNLAEESQRILGCTENIGTQIRSCKDEVFLNLPSLQARIRAITSEAGLDEPSQDVAVLISHACQERLKNIVEKLAVIAEHRIDVIKLDPRYEPAKDVRGQIKFLEELDKAEQKRHEELEREMLLRAAKSRSRVEDPEQAKMKARAKEMQRAEMEELRQRDANLTALQAIGPRKKLKLDGETVSSGAGSSGGGVLSSSGSAPTTLRPRIKRVNLRDMLFYMEQEREFCRSSMLFKTYLK
As for B2, in experiment [2], the binding entry was “binds”.

B3: TFIID subunit Taf6 (protein, UniProt P49847 1-606)
chain: MSGKPSKPSSPSSSMLYGSSISAESMKVIAESIGVGSLSDDAAKELAEDVSIKLKRIVQDAAKFMNHAKRQKLSVRDIDMSLKVRNVEPQYGFVAKDFIPFRFASGGGRELHFTEDKEIDLGEITSTNSVKIPLDLTLRSHWFVVEGVQPTVPENPPPLSKDSQLLDSVNPVIKMDQGLNKDAAGKPTTGKIHKLKNVETIHVKQLATHELSVEQQLYYKEITEACVGSDEPRRGEALQSLGSDPGLHEMLPRMCTFIAEGVKVNVVQNNLALLIYLMRMVRALLDNPSLFLEKYLHELIPSVMTCIVSKQLCMRPELDNHWALRDFASRLMAQICKNFNTLTNNLQTRVTRIFSKALQNDKTHLSSLYGSIAGLSELGGEVIKVFIIPRLKFISERIEPHLLGTSISNTDKTAAGHIRAMLQKCCPPILRQMRSAPDTAEDYKNDFGFLGPSLCQAVVKVRNAPASSIVTLSSNTINTAPITSAAQTATTIGRVSMPTTQRQGSPGVSSLPQIRAIQANQPAQKFVIVTQNSPQQGQAKVVRRGSSPHSVVLSAASNAASASNSNSSSSGSLLAAAQRSSDNVCVIAGSEAPAVDGITVQSFRAS
For B3, the binding entry in experiment [2] is “binds”.

B4: Drosophila Sumo (ortholog of the small ubiquitin-like modifier SUMO2) (protein, UniProt O97102 1-90)
chain: MSDEKKGGETEHINLKVLGQDNAVVQFKIKKHTPLRKLMNAYCDRAGLSMQVVRFRFDGQPINENDTPTSLEMEEGDTIEVYQQQTGGAP
Take B4: the binding entry in experiment [2] was “binds”.

B5: Mediator complex subunit MED1 (protein, UniProt Q9VP05 1-1475)
chain: MSGSNAKSSGTGFGSHIPSIEEKNKQIQQETMMEKLRAKYRNKPKSYEEIKKSVRMYFIEKHYPLDPLCKATLQSALDKLQHYIKVTSRHGLVERLESLSRQLGLKFMEDQQLLFISTDMFYVEILLDAAGSLSDVKVHHECKIEQQSSELVACLKSGDFADFTVQLEGLSSIYQLNAEPKVKKKAFVALQAMETDIQSLYQLHLQGHSGDSYSLMTSSSVGLVLPRRGGHPMRLTYFCPPLHLPEGDPKLASGDFTIDQVMRSSYGLSATINLEGSSANKLQTLPTVTLVRDAQTGLEVPTYAQLNQNNSLLMPATFVLRLNKPMPVCLESLKALGLPGLDSVATPPGPPTTVLNLIVQTASKQAIKNTQRGLYVNLPKETHCYFFTDNRKLQGTLVSSLPFTEPAQVPRIVAFLKKQALFYTLLASCVREQQKQYNDMDSTVILEVTAVSFNQITVELQHPYEESLATVDFLLEDGQPTCSVYCLTNEYELLSQKLTRTARKVVSIPMVIYKLLKCWDEEHEFKLHGAIGPGSGSGAIGGGGMSGGGPVSGVGNNFSQFSMDTPTPSDGSLPGGGFANINNLKMDAKSRSLADAFAASTSAAAAIAGLINLKRETDPQSGSSASGTTVSGSSSSSGSAKTSDHDIADKYKNIWKDKTPNLKHCVSITPIPGDGKSGSAGGVSGVEVQRTGGIEIIPLNAQAAIAGGGVTASSSATPTTITITPITGKDPSKDSTKKSTAASAGVGVAAKRPHESSTSSSSTSGCSGSGSSMSSSASSGSSDTQKEKKRKKKRDDSPMGPPEKIYSRQNSPAGGADASATGGVVRKFSSPSSSPKAGGGGQGLMAGVPTARPSPKHSPVYSSPKHNTASNSPKSPFGTHSPKHGSSGKPSMSTLKSAATAATILSPKGDKSSSAVGNTSSGPSASSGSSGATGLVRSFASVGAPPPPPPIPPLASSSGSISSSQSLKKEKTSSASGSSSTSSSATAGVASGGGISPASVAAAVAALKSSQQQMKSVASLSHLAAGGGLGSYAAPSGAGASGAAAVVVGAGAGAGAGASGLELSALRKGMAGGAVSLMTSTAALAPTIPAPTTTVAAGSAASLVSPVSAVVGQGQETAGAAAAATLATATILQQQPQPGAAPTSSCLTTSGGSSDSAGSINPAGASTEYMVKPSSQEGLKLTINKTGSSKSSGTGSGSSSSSGLQAKAKSSSSGATSFAGSTGSTKKQHTGLKPGVNSGPASKKATAAVSSATASSSKHFFQKANSSGNLSSKLSGSGSGGGIPLTKSNSTNSFQEHNAPRRRPSMGALASGSSGGGSGQRKLGSASGGGSGSSGSVSPALSGSMSQPPPRFDHHTDMMTILQYASPTMAASMEGFIKGLHNKFQIPKLSQRGSGGNTTSGRSTPSGSSEPALAGTSSSILGPIASSTGLTEPEAKPPVPPSQSGNEGLLNLSSTAGTPSADGIDEELLASLAGE
Turning to B5, the binding result in experiment [2] is on record as “binds”.

B6: Mediator complex subunit MED17 (protein, UniProt Q9VEC1 1-642)
chain: MSNSVNISVETTCENQIREIGYDGTELYQPPPTLSESLAKCAARIDFSKTSLDDLKKEEKSAAAAADEDKDATQFQESLWPWDAVRNKLKDALTEICVLSDVISIAKDKRYLVLDPLLEEADDTKPIVQVYSRKKAISQAAQVLLSGAERLRNAHSEQRNRNVSDFHIELLRLRQNWRLKKVSNAIIGDLSYRTAGSKFGMSGTFEVTKAEETGDEDTASSSNSSSSVSGNNGMQLKASSALRVIVPAELQGVAYIKVITQKDQEDLCTAQLNLMGHGPNITAQVGVWQKTLEFAQNVLFCKELFAQLAREAIQLQAPIPHVVIGNQIRATLLPNIQLIISLCHSTTFDSSQPAPINDHDHVLEHSLHQLLREVHYKNSHHPFPHPASAPLGPTKKRMLAGPMAADRETLLDMTKSQTILEQIIAQAQHIFMRKRTQYVLDTLARDVKDPQIVSHWNAMNSPTMSCVKINIVTHGYDAIGRTSLVIHVKERSLKCICRDGRVMRLSYEPQELRDLILCQINSHQISCLISLARCMSWTVLSNSNHLGIGKVEPLGNASSCLLASPNSDRMIAVQIRCDPQIDVKVYIARSPRQDFFPSPLVPEKLWENLGGTFKEVRFDKIEGKSFLNKMEFLMASLTSNTA
Regarding B6, the binding entry in experiment [2] is “binds”.

B7: transcription factor Myc (protein, UniProt Q9W4S7 1-717)
chain: MALYRSDPYSIMDDQLFSNISIFDMDNDLYDMDKLLSSSTIQSDLEKIEDMESVFQDYDLEEDMKPEIRNIDCMWPAMSSCLTSGNGNGIESGNSAASSYSETGAVSLAMVSGSTNLYSAYQRSQTTDNTQSNQQHVVNSAENMPVIIKKELADLDYTVCQKRLRLSGGDKKSQIQDEVHLIPPGGSLLRKRNNQDIIRKSGELSGSDSIKYQRPDTPHSLTDEVAASEFRHNVDLRACVMGSNNISLTGNDSDVNYIKQISRELQNTGKDPLPVRYIPPINDVLDVLNQHSNSTGGQQQLNQQQLDEQQQAIDIATGRNTVDSPPTTGSDSDSDDGEPLNFDLRHHRTSKSGSNASITTNNNNSNNKNNKLKNNSNGMLHMMHITDHSYTRCNDMVDDGPNLETPSDSDEEIDVVSYTDKKLPTNPSCHLMGALQFQMAHKISIDHMKQKPRYNNFNLPYTPASSSPVKSVANSRYPSPSSTPYQNCSSASPSYSPLSVDSSNVSSSSSSSSSQSSFTTSSSNKGRKRSSLKDPGLLISSSSVYLPGVNNKVTHSSMMSKKSRGKKVVGTSSGNTSPISSGQDVDAMDRNWQRRSGGIATSTSSNSSVHRKDFVLGFDEADTIEKRNQHNDMERQRRIGLKNLFEALKKQIPTIRDKERAPKVNILREAAKLCIQLTQEEKELSMQRQLLSLQLKQRQDTLASYQMELNESRSVSG
As for B7, the binding entry in experiment [2] is given as “no binding”.
